PubChem BioAssay AID743454 | Peter MacCallum Cancer Centre – 2014
This is one part, drawn at random, of about 18,000 reagents tested. Of all reagents, 450 (2.5%) are marked active. 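Single biological run; no consistent viability z cut-off exists, so the class columns, not z-scores, define the calls.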 Unmarked entries are inactive.

Aim: 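Genes whose loss kills vorinostat-resistant colon cancer cells under vorinostat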 (primary screen)
Cell system: human HCT116-VR colon cancer cells, selected for vorinostat resistance
Knock-down reagent: siRNA pool against human genes, 40 nM siRNA pool
Timing: vorinostat for 24 h, read-out about 72 h after transfection
Treatment: vorinostat at 2.5 µM final
Measured: 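Cell viability by CellTiter-Fluor and caspase 3/7 activity by luminescence, each scaled to mock wells per plate, duplicates averaged, then robust z-scored over all plates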
Scale: viability robust z-score: higher = more viable cells than screen typical; caspase robust z-score: higher = more caspase 3/7 activity than screen typical
Hit rule: 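a knock-down is a hit when classed RV1 or RV2 for lowered viability, or CA1 or CA2 for caspase activation; those lethal without drug were dropped; hits were retested singly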

Target gene,viability hit class,caspase hit class,viability robust z-score,caspase robust z-score
CPN1,no change,no change,-0.08,0.32
RGS14,no change,no change,0.1,-1.19
REG1A,no change,no change,0.54,-0.12
IPO9,no change,no change,0.38,-1.32
TFEB,no change,no change,0.42,1.26
ELP6,no change,no change,-0.76,0.42
RSPH1,no change,no change,0.96,-0.59
ADAMTS19,no change,no change,0.82,-0.87
CUEDC1,no change,no change,0.17,0.9
SLC13A3,no change,no change,0.23,0.36
ABCG4,no change,no change,-1.53,-1.04
FAM81A,no change,no change,0.18,1.38
THAP9,no change,no change,-0.92,-1.01
DNAAF19,no change,no change,1.64,-0.72
ELP1,no change,no change,0.09,-0.41
HNRNPH1,no change,no change,-1.16,-0.89
SEC14L1,no change,no change,0.44,-0.35
TUBE1,no change,no change,-0.05,-1.08
CLPB,no change,no change,-1.84,0.36
CYREN,no change,no change,1.05,-0.76
NPVF,no change,no change,0.32,0.42
EHBP1,no change,no change,-0.55,-0.48
ZNF281,no change,no change,0.08,2.71

Sorted by “viability robust z-score” (lowest first): some entries from above
Target gene,viability hit class,caspase hit class,viability robust z-score,caspase robust z-score
ELP6,no change,no change,-0.76,0.42
CUEDC1,no change,no change,0.17,0.9
IPO9,no change,no change,0.38,-1.32
TFEB,no change,no change,0.42,1.26
ADAMTS19,no change,no change,0.82,-0.87
RSPH1,no change,no change,0.96,-0.59

The listing continues.
Target gene,viability hit class,caspase hit class,viability robust z-score,caspase robust z-score
EXOSC2,no change,no change,-1.57,-1.21
ARMCX1,no change,no change,0.56,2.74
RBPMS,no change,no change,0.66,-1
PWP2,no change,no change,-2.26,1.48
MAP4K2,no change,no change,1.71,-0.44
OGFR,no change,no change,-0.9,2.9
ATP6V0D1,no change,no change,-1.82,-0.28
PAPOLB,no change,no change,1.43,-0.74
SKOR1,no change,no change,0.04,-0.76
ROR2,no change,no change,0.34,0.79
ARHGAP11B,no change,no change,-0.74,-0.44
MARF1,no change,no change,1.21,-0.5
ARX,no change,no change,-0.62,-0.92
ATP5MJ,no change,no change,0.97,-0.9
ZFYVE26,no change,no change,0.42,5.05
SLC44A4,no change,no change,0.38,2.4
